This note sets out measurements from paper PMC3197879 (Oncogene, 2011).

The series concerns the molecule itself. The series is described as follows: SEC. On the technique in general: In gel filtration, larger molecules generally elute earlier.

B1: PAX5-C20S-His6 (other)
chain: MDLEKNYPTPRTSRTGHGGVNQLGGVFVNGRPLPDVVRQRIVELAHQGVRPCDISRQLRVSHGCVSKILGRYYETGSIKPGVIGGSKPKVATPKVVEKIAEYKRQNPTMFAWEIRDRLLAERVCDNDTVPSVSSINRIIRTKVQQPPNQPVPASSHSIVSTGSVTQVSSVSTDSAGSSYSISGILGITSPSADTNKRKRDEASLQTGNHSNGPTDLSMKGGASTTSTTPTPTPSSTSTSRPVPTAQLSPTEISAVRQLIAGYRESAAFLLRSADELENLILQQN
As for B1, the “stoichiometry N” value stood at 4.

The term stoichiometry N denotes a count of units in the complex or per binding partner.
